# Screening data, single-dose tests

Chains of the proteins cited; added tags and fusions are not shown.
UniProt P9WFT3, whole entry: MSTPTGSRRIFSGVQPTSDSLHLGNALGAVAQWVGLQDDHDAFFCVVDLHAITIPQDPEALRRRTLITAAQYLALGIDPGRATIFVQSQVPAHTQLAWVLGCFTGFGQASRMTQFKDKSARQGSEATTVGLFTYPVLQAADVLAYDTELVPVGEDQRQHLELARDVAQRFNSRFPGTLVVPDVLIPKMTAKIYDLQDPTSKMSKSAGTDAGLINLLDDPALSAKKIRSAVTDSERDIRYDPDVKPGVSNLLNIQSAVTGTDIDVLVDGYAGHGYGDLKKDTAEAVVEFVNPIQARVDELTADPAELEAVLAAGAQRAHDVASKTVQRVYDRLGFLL
UniProt P9WNZ1, whole entry: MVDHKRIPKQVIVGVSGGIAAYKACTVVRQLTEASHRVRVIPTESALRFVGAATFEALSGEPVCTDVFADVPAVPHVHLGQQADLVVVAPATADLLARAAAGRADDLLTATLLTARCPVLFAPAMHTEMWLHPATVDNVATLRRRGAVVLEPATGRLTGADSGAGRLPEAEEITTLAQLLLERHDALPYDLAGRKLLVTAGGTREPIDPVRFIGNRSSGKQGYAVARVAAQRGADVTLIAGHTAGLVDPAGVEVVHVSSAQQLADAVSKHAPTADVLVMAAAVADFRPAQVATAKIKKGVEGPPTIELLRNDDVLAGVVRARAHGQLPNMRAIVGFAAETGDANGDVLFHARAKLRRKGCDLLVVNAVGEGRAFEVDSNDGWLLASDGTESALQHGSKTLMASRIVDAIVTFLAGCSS
UniProt P9WPC5, whole entry: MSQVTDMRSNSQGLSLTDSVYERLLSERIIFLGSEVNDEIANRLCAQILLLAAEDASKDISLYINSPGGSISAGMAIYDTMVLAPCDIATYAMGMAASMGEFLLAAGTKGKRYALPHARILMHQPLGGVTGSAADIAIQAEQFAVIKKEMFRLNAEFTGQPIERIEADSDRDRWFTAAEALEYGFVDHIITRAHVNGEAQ
UniProt P9WPC3, whole entry partner: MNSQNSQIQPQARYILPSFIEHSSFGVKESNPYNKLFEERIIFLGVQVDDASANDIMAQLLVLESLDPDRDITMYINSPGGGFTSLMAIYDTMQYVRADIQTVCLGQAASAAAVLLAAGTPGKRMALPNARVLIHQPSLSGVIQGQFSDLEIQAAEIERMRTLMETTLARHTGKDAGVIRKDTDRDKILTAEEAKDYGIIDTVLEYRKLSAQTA

From ChEMBL document CHEMBL3988442, “University of Dundee, Small-Polar-MMV Screening Library” (2021).

MtTrpRS: 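Tryptophan-tRNA ligase, Mycobacterium tuberculosis (UniProt P9WFT3). Enzyme assay of tryptophanyl-tRNA synthetase; the read-out is not stated. Compounds at 10 µM. Higher most likely means stronger inhibition; the record gives no direction and few retests gave an IC50. Size under these conditions: about 65,000 compounds, about 64 of them at 50% or above in at least one test.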
CoaBC: 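Coenzyme A biosynthesis protein CoaBC, Mycobacterium tuberculosis (UniProt P9WNZ1). Enzyme assay of CoaBC with a phosphate dye (Biomol Green) read at 650 nm. Compounds at 30 µM. Direction is inferred from only a few compounds that gave an IC50; most scored high, so higher reads as stronger inhibition. Most strong results did not repeat in a second test. Of about 67,000 compounds tested this way, about 40 (0.06%) reached 50% or more in at least one test.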
ClpP1P2: 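ClpP1P2, Mycobacterium tuberculosis (UniProt P9WPC5 and UniProt P9WPC3). Protease assay of ClpP1P2, read by the AMC dye that it sets free. Tested at 50 µM. Direction is inferred from only a few compounds that gave an IC50; most scored high, so higher reads as stronger inhibition. Most other retested compounds had strongly negative values. Size under these conditions: about 69,000 compounds, about 10 of them at 50% or above in at least one test.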

Each number is a percent effect as filed. The record does not define 0% and 100%; most values in the screen are far below 50% and negative numbers occur (in some assays of this library far below -100). The compounds are a random part of those screened. A dash means the value is not listed here; it may have been measured.

| structure | MtTrpRS | CoaBC | ClpP1P2 |
|---|---|---|---|
| `COc1cccc(CC(=O)N2CCc3ncnc(NCCO)c3CC2)c1` | 2.874 | 1.597 | -7.27 |
| `CCn1cnnc1C1CCN(C(=O)c2cc(F)ccc2OC)CC1` | -2.726 | 3.742 | -16.38 |
| `CCc1ncc2c(n1)CN(C(=O)c1c(C)[nH]c3c1C(=O)CCC3)C2` | 8.14 | 2.4 | 11.5 |
| `CO[C@H]1CCN(C2CCC2)[C@@H]2CN(Cc3ccncc3)C[C@H]12` | -2.186 | -0.8333 | -10.38 |
| `CN1CCN(C(=O)c2cnsn2)c2cc(F)ccc21` | 3.732 | -1.211 | -10.46 |
| `CC(=O)N[C@@H]1CN(Cc2cccs2)C[C@H]1c1ccc(C)o1` | -5.235 | 6.762 | -8.852 |
| `CN(C)C(=O)NC1COC2(CCN(Cc3ccc(N(C)C)cc3)CC2)C1` (centres unmarked) | -5.185 | -0.2538 | 0.3676 |
| `CN(C)CCOCc1nnc2n1CCN(CC1CC1)CC2` | 27.39 | 6.535 | -12.8 |
| `CN(CCC#N)C(=O)CN1CCCN(Cc2noc(C3CC3)n2)CC1` | -2.557 | -16.67 | -14.34 |
| `CC(C)c1n[nH]c(C2CN(C(=O)c3cn4ccccc4n3)CCO2)n1` (centres unmarked) | 9.369 | -4.042 | -15.46 |
| `c1ccc(CN2C[C@@H]3OCCN(CC4CCCO4)[C@@H]3C2)nc1` (some centres unmarked) | 6.364 | 10.28 | -3.124 |
| `O=C(c1cc(-c2cccs2)nc2ccccc12)N1CCN(CCO)CC1` | -3.222 | 1.21 | -3.029 |
| `CN(C)c1ccc(C(=O)N(CCO)CC2CC2)c(F)c1` | 0.5025 | 15.14 | -5.047 |
| `CN1CCc2nc(C3CCCCN3Cc3ccccc3Cl)ncc2C1` (centres unmarked) | - | 6.32 | -7.833 |
| `CCn1cc(CN2CCCC(c3[nH]ncc3S(C)(=O)=O)C2)cn1` (centres unmarked) | 0.9167 | 16.1 | 0.1812 |
| `Cn1cc(CN2CCCC23CCN(S(C)(=O)=O)CC3)cn1` | 0.07639 | -7.505 | 2.943 |
| `COCC(=O)Nc1ccnn1-c1ccc(Cl)cc1` | 5.675 | 3.929 | -4.453 |
| `Cc1nc(COC(=O)c2cccnc2C)no1` | -0.1514 | 6.149 | -4.911 |
| `CCn1c(C)cc(C(=O)N2CCC(Nc3cccnn3)CC2)c1C` | 6.041 | 3.457 | -6.427 |
| `CS(=O)(=O)N1CCC(C(=O)NC(Cc2ccsc2)c2nccs2)CC1` (centres unmarked) | -2.759 | 7.778 | 3.964 |
| `O=C(CCn1cncn1)N1CCCC(CO)(CCCc2ccccc2)C1` (centres unmarked) | -2.714 | -0.6135 | 9.446 |
| `Cc1nn(C)c(C)c1NC(=O)CN1CCOC(CN(C)C)C1` (centres unmarked) | 3.479 | -21.61 | 10.91 |
| `CCOC(=O)NC(CNC(=O)c1cc(Cl)ccn1)CC(C)C` (centres unmarked) | 8.004 | 4.721 | 10.2 |
| `CC(Nc1nc2c(cnn2C)c(=O)[nH]1)c1ccccn1` (centres unmarked) | 1.451 | -11.98 | -1.134 |
| `COc1cc(NC2CCCNC2)cc(OC)c1` (centres unmarked) | 7.542 | -41.94 | -1.394 |
| `Cc1n[nH]cc1CNC(=O)CCCc1cccs1` | -5.509 | 5.242 | 0.4638 |
| `Cc1nc(C)n(CC2CCCCN2CCCS(N)(=O)=O)n1` (centres unmarked) | -1.958 | -4.89 | -7.632 |
| `Cc1ncc(CNC2CCc3nc(C(C)C)nn3C2)s1` (centres unmarked) | 1.027 | 0.6017 | -2.486 |
| `COCCN1CCC(CNC(=O)C2(c3cccc(Cl)c3)CC2)C1` (centres unmarked) | -7.997 | 5.492 | -39.05 |
| `COc1cccc2c1OCC(Cc1cnc(N)c(C)c1)C2` (centres unmarked) | 10.59 | 5.656 | 1.844 |
| `CC(C)CCN1C(=O)c2ccc(C(=O)NCCc3c[nH]cn3)cc2C1=O` | 3.333 | 0.7634 | -5.064 |
| `CCc1ccc(CCNc2ncnc3c2CCN(C(=O)C2CC2)C3)cc1` | 1.188 | 5.122 | 0.008662 |
| `CCN(CC)c1ccc2ccc(C(=O)NC3CC3)cn12` | 2.422 | - | -5.417 |
| `O=S(=O)(C1CC1)N1CCc2ncnc(N3CCCC3)c2CC1` | - | 6.807 | 1.138 |
| `CC(C)Cc1cc(C(=O)NCC2CCN(c3ccccc3F)C2)on1` (centres unmarked) | 1.868 | 4.146 | -5.635 |
| `CC(NC(=O)CCN1CCOC1=O)(c1ccccc1)c1ccccc1` | -1.37 | 1.442 | -12.66 |
| `NS(=O)(=O)CCNC(=O)C1(c2ccccc2)CC1` | 2.577 | -0.3654 | -6.577 |
| `CC(C)c1nc(CN(C)C(=O)CCc2ccc3c(c2)OCO3)cs1` | -3.382 | -4.113 | -7.208 |
| `CS(=O)(=O)N1CC(c2ccnc(Nc3ccccn3)n2)C1` | -0.3524 | -1.942 | -31.16 |
| `CN(C)[C@@H]1CN(C(=O)c2ccc3ccccc3n2)C[C@H]1O` | -4.549 | 5.81 | 1.434 |
| `CCOCC1CN(C(=O)c2cnccn2)Cc2cnn(CC3CC3)c21` (centres unmarked) | 6.646 | 3.043 | 5.527 |
| `CCc1nc(CNc2cc(C)nc(-c3cccnc3)n2)cs1` | -1.514 | 4.207 | -5.918 |
| `O=C(NC1CC1)N1C[C@@H]2CCN(C(=O)c3cscn3)[C@@H]2C1` | - | -1.951 | -2.465 |
| `O=C(NCC(F)F)c1ccc(S(=O)(=O)NCCc2cn[nH]c2)cc1` | 0 | -3.247 | -8.777 |
| `Cc1cccc(CC(=O)NCCCOC(C)C)c1` | -1.679 | 2.892 | 6.307 |
| `Cc1ccc2cc(C(=O)N3CCCCC3c3nc[nH]n3)ccc2n1` (centres unmarked) | 5.663 | 13.45 | -9.903 |
| `COc1ccc(-c2nc(C3(NC(=O)OC(C)(C)C)CCC3)no2)cn1` | -2.542 | 4.839 | 1.24 |
| `Cc1ccncc1CN1CCOCC1c1[nH]ncc1C` (centres unmarked) | -5.287 | 4.116 | -16.93 |
| `Cc1ccc(-n2ncc(C(=O)N(C)C3CCN(C)CC3)c2N)cc1C` | - | 2.427 | 14.27 |
| `Cc1cc(C(=O)N2CCCC2c2nc(C)cc(O)n2)on1` (centres unmarked) | - | 3.186 | -0.8317 |
| `O=C(C1CC=CC1)N1C[C@@H]2[C@@H](C1)OCC(=O)N2Cc1cccnc1` | -1.433 | 3.929 | -11.67 |
| `Nc1ncc(C(=O)N2CCCC(N)CC2)c(-c2ccccc2)n1` (centres unmarked) | 12.61 | 9.368 | -10.3 |
| `CN(C)Cc1cccc(-c2cccnc2C(=O)NCC2CC2)c1` | -3.851 | 0 | -13.89 |
| `Cc1c(Br)cnn1CCC(=O)N(C)Cc1c(Cl)cnn1C` | 3.803 | -32.03 | -7.708 |
| `Cn1nc(C(=O)N2CC(Oc3nc4c(Cl)cccc4s3)C2)ccc1=O` | 1.417 | 8.193 | 6.501 |
| `CCn1nc(CNC(=O)C2CCCN(C(=O)COC)C2)c2ccccc21` (centres unmarked) | -6.549 | 5.645 | -3.733 |
| `COc1cc(C)nc(N2CCN(C(=O)COC3CCCC3)CC2)n1` | -2.288 | 2.046 | -27.17 |
| `O=C(c1cccc(F)c1)N1C[C@H]2CN(Cc3ccccn3)C[C@H]2C1` | -6.25 | 3.99 | 2.308 |
| `COc1ccc([C@@H]2CN(C(=O)Cc3cccs3)C[C@H]2NC(C)=O)cc1` | -1.696 | 9.368 | -11 |
| `Cc1csc([C@H]2C[C@@H]3CCN(C(=O)c4ccnnc4)C[C@H]3O2)n1` | 4.064 | -1.474 | 9.495 |
| `Cc1nccn1CCNC(=O)C1(C)CC(c2ccccc2)=NO1` (centres unmarked) | -6.223 | 5.276 | -7.463 |

7 of the entries, repeated:

CC(C)c1n[nH]c(C2CN(C(=O)c3cn4ccccc4n3)CCO2)n1 (centres unmarked) read MtTrpRS: 9.369%; CoaBC: -4.042%; ClpP1P2: -15.46%.
c1ccc(CN2C[C@@H]3OCCN(CC4CCCO4)[C@@H]3C2)nc1 (some centres unmarked) read MtTrpRS: 6.364%; CoaBC: 10.28%; ClpP1P2: -3.124%.
CCOC(=O)NC(CNC(=O)c1cc(Cl)ccn1)CC(C)C (centres unmarked) read MtTrpRS: 8.004%; CoaBC: 4.721%; ClpP1P2: 10.2%.
Nc1ncc(C(=O)N2CCCC(N)CC2)c(-c2ccccc2)n1 (centres unmarked) read MtTrpRS: 12.61%; CoaBC: 9.368%; ClpP1P2: -10.3%.
O=C(c1cccc(F)c1)N1C[C@H]2CN(Cc3ccccn3)C[C@H]2C1 read MtTrpRS: -6.25%; CoaBC: 3.99%; ClpP1P2: 2.308%.
NS(=O)(=O)CCNC(=O)C1(c2ccccc2)CC1 read MtTrpRS: 2.577%; CoaBC: -0.3654%; ClpP1P2: -6.577%.
CN(C)[C@@H]1CN(C(=O)c2ccc3ccccc3n2)C[C@H]1O read MtTrpRS: -4.549%; CoaBC: 5.81%; ClpP1P2: 1.434%.